Experimental data: patent US20160106773A1, “TREATMENT FOR DISEASES RELYING ON DISCOVERY THAT THIOREDOXIN MEDIATES NITRIC OXIDE RELEASE IN CELLS” (Duke University, priority 2008, published 2016)
At least one structure is not confirmed: it was looked up by name or label, or the drawing left a doubt.

Assays:
Format in all cases: in vivo
[1] = tested on: person with Alzheimer's; assay: Working Example IV: patient with Alzheimer's; settings: combination: NAC 300 mg/day, ascorbate 1 gm/day and minocycline 100 mg TID
Description: A person with Alzheimer's is then started on combination of NAC (300 mg/day), ascorbate 1 gm/day and minocycline 100 mg TID and memory improves.

[2] = tested on: person with rhematoid arthritis; assay: Working Example VII: patient with rheumatoid arthritis; settings: combination: deprenyl 10 mg plus ascorbate 1 gm plus ISDN 5 mg PO TID or plus cysteine or NaHS (final concentration in blood 10 μM-1 mM)
Description: A person with rhematoid arthritis is administered deprenyl 10 mg plus ascorbate 1 gm plus ISDN 5 mg PO TID or plus cysteine or NaHS (final concentration in blood of 10 μM-1 mM). Progression of the disease slows.

[3] = tested on: person with Parkinson's disease; assay: Working Example III: patient with Parkinson's disease; settings: Ascorbate 1 gm/day added to N-acetylcysteine plus aptamer directed at Parkin
Description: A person with Parkinson's disease is given orally 300 mg N-acetylcysteine and 0.3 mg dose by injection into spinal fluid (range may be 10 μg-2 mg of body weight) of aptamer directed at Parkin for 30 days. Movement improves.

[4] = tested on: with muscular dystrophy; assay: Working Example V: patient with muscular dystrophy; settings: Minocycline 300 mg BID added to deprenyl plus ISDN
Description: A person with muscular dystrophy is given deprenyl 10 mg/day plus isosorbide dinitrate (ISDN) 10 mg/day and weakness improves.

SMILES	memory [1]	Progression of the disease [2]	dexterity [3]	6 minute walking test [4]
O=C1O[C@H]([C@@H](O)CO)C(O)=C1O [ascorbate]	improves	slows	improves further	–
CN(C)c1ccc(O)c2c1C[C@H]1C[C@H]3[C@H](N(C)C)C(O)=C(C(N)=O)C(=O)[C@@]3(O)C(O)=C1C2=O [minocycline]	improves	–	–	further improvement
